Data as given in PubChem BioAssay AID1053208 (Peter MacCallum Cancer Centre, 2014).
Screen: 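Genes whose silencing cuts survival of bone tumour cells only with doxorubicin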 (primary screen). Cells: mouse osteosarcoma cells, early-passage culture from an engineered mouse model of fibroblastic bone tumour. Reagent: siRNA pool against mouse genes, 40 nM. Time to read-out: about 120 h (48 h before drug, then 72 h with drug). Challenge: doxorubicin 100 nM for 72 h, roughly 30-40% inhibitory dose. Measurement: 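Luminescent ATP signal taken as viability with or without 100 nM doxorubicin for 72 h; mean of two wells set against non-targeting siRNA and turned into robust z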. Reading the numbers: viability z-score with doxorubicin: higher = more viable cells under doxorubicin; viability z-score without drug: higher = more viable cells with knock-down alone. Call rule: 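a pool counts as active when its viability z-score with doxorubicin is -2 or below and its z-score without drug lies between -2 and 2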.
Shown is one part, drawn at random, of about 17,000 reagents tested. In the full data, 788 (4.7%) were called active. 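Calls rest on z-score classes alone; an extra cut-off of viability at most 70% of control was not applied to them.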 A number with no mark means an inactive call. Not all columns of the deposit are shown.

| target | combined z-score class | viability z-score with doxorubicin | viability z-score without drug |
| --- | --- | --- | --- |
| Tas2r115 | high cell count with doxorubicin only | 2.81 | 1.18 |
| 0610007P08RIK | no change with or without drug | 1.69 | 1.52 |
| Ier3 | no change with or without drug | -0.67 | -0.67 |
| Klhl22 | no change with or without drug | -0.56 | -0.51 |
| Efcab9 | low cell count with doxorubicin only (active) | -3.26 | 0.17 |
| D430041D05Rik | no change with or without drug | 0.22 | -0.34 |
| Kif6 | no change with or without drug | -1.24 | -0.84 |
| Mmp10 | no change with or without drug | -0.79 | -0.51 |
| Cyp7b1 | no change with or without drug | 1.35 | 0.51 |
| Tmem109 | low cell count with doxorubicin only (active) | -2.81 | -1.85 |
| Mageb2 | low cell count with doxorubicin only (active) | -2.02 | -1.52 |
| Lrrc25 | low cell count with and without drug | -2.36 | -2.19 |
| Pank1 | no change with or without drug | 0.9 | 0 |
| Or9i1 | no change with or without drug | -0.22 | -0.51 |
| Gria1 | no change with or without drug | -0.11 | -1.18 |
| Dusp22 | no change with or without drug | 1.57 | 0.51 |
| Usp43 | no change with or without drug | -0.56 | 1.69 |
| Cgas | no change with or without drug | -0.9 | 0.34 |

Next part; the last 2 above are carried over.
| target | combined z-score class | viability z-score with doxorubicin | viability z-score without drug |
| --- | --- | --- | --- |
| Usp43 | no change with or without drug | -0.56 | 1.69 |
| Cgas | no change with or without drug | -0.9 | 0.34 |
| Phf11d | no change with or without drug | 1.12 | -1.18 |
| Stimate | no change with or without drug | -0.22 | -0.84 |
| Tyw1 | no change with or without drug | -0.45 | 1.18 |
| Or2ah1 | no change with or without drug | -0.11 | 0 |
| Robo2 | no change with or without drug | 0.45 | -0.17 |
| 1810024B03Rik | no change with or without drug | 1.8 | 1.18 |
| Pld5 | no change with or without drug | 0.22 | 1.52 |
| Pex2 | no change with or without drug | -0.45 | 0.34 |
| Psd4 | no change with or without drug | -0.67 | 1.18 |
| Edem3 | high cell count without drug only | 0.22 | 2.36 |
| Myo1b | no change with or without drug | 0 | -0.84 |
| Plekha8 | no change with or without drug | -0.22 | 0.17 |
| Mrpl19 | no change with or without drug | -0.45 | -1.18 |
| Pir | no change with or without drug | 1.12 | 0.34 |
| Scn4a | no change with or without drug | -0.45 | -0.17 |
| Hoxb6 | no change with or without drug | -1.24 | -1.01 |
